Numbering of substitutions follows the chain as printed. Results are given in words; binding and its absence hold for the method and conditions named. Some results given as binding are weak or reduced against the parent protein; the word gives no strength.

Experimental findings from patent US20150203573A1 (MEDICAL AND BIOLOGICAL LABORATORIES, published 2015) are described below.

To fix the notation:
T1: recombinant mouse MK (mMK), aa1-aa119 of mouse MK (mouse) (UniProt P12025)
T1 sequence (looked up): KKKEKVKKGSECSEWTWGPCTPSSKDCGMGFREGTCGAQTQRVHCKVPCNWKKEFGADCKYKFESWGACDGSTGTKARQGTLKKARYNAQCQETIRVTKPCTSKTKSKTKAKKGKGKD

B1: hFB54-matu014 affinity-improved antibody (IgG) (antibody, V domains shown)
VH: EVQLVESGGGLVKPGGYLRLSCAASGFTFSSYAMSWVRQTPGKGLDWVATISSGGSYTYYPDSVKGRFTISRDNVKNSLYLQMNSLTDDDTAVYFCARHNYRYDEYYYAMDYWGQGTLVTVSS
VL: ETTVTQSPSSLSASVGDRVTIRCITNIDIDDEMNWYQQKPGKGPKLLISEGNTLRPGVPSRFSSSGYGTDFTLTISSLQPEDFATYYCLQSDNLPYTFGRGTKLEIK
B2: hFB54-matu072 affinity-improved antibody (IgG) (antibody, V domains shown)
VH: B1 VH with T40A, S63N, V75A, Y108H
VL: B1 VL with S12F, R18K, N26S, R100Q
B3: hFB54-matu062 affinity-improved antibody (IgG) (antibody, V domains shown)
VH: B1 VH with T40A, V75A, K76E, S78T, D88N
VL: B1 VL with S14F, D17G, T20A, L89M, R100Q
B4: hFB54-matu039 affinity-improved antibody (IgG) (antibody, V domains shown)
VH: B1 VH with Q3R, T40A, G66E, V75A, A109G
VL: B1 VL with I24K, N26S, R100Q, E105G
B5: hFB54-matu024 affinity-improved antibody (IgG) (antibody, V domains shown)
VH: B1 VH with T40A, V75A, D104G
VL: B1 VL with N26S, P40S, R100Q
B6: hFB54-matu054 affinity-improved antibody (IgG) (antibody, V domains shown)
VH: B1 VH with T40A, V75T, S78T
VL: B1 VL with N26S, D30E, R100Q
B7: mFB54-matu089 affinity-improved antibody (IgG) (antibody, V domains shown)
VH: EVMLVESGGGLVEPGGSLKLSCTVSGFTFSSYAMSWVRQTPEKRLEWVATISSGGSYTYYPDSVKGRFTISRDNAKNTLYLQMSSLRSEDTAMYFCARHNYRYDEYYYAMDYWGHGTSVTVSS
VL: ETTVTQSPTSLSMAIGEKVTIRCITSIDIDDEMNWYQQKPGEPPKLLISEGNTLRPGVPSRFSSSGYGTDFVFTIENVLSEDVADYYCLQSDNLPYTFGGGTKLEIK
B8: mFB54-matu002 affinity-improved antibody (IgG) (antibody, V domains shown)
VH: B7 VH with E13K, T23A, V24A, H115Q
VL: B7 VL with I24T, K39M, V78M
B9: mFB54-matu002 Fab antibody (Fab, V domains shown)
VH: B7 VH with E13K, T23A, V24A, H115Q
VL: B7 VL with I24T, K39M, V78M
B10: mFB54-matu089 Fab antibody (Fab, V domains shown)
VH: B7 VH
VL: B7 VL

The target in one assay is T1, recombinant mouse MK (mMK), aa1-aa119 of mouse MK (mouse). Put plainly: ELISA, IgG serially diluted from 5 ug/mL; against hFB54 or mouse FB54.
Turning to B1, the binding result is “binds”.
As for B2, the binding result was “binds”.
Still for that read-out and setting: in the case of B3 it was “binds”; in that of B4, “binds”; in that of B5, “binds”.
The same measure, in the same setting: in the case of B6 it was “binds”; in that of B7, “binds”; in that of B8, “binds”.

The next assay shares this target. Nature of the assay: ELISA, Fab in E. coli culture supernatant on mMK coated at 5 ug/mL, anti-cp3 detection.
With B9, the binding result is listed as “binds”.
On the same count and under the same terms, in the case of B10 it was “binds”.

A further assay has the same target. Nature of the assay: ELISA, purified Fab serially diluted from 5 ug/mL, antigen coated at 2 ug/mL; against mFB54 Fab. (In general: In an ELISA, binding on a coated surface is turned into a signal by an enzyme label.)
Take B9: the binding entry is on record as “binds”.
On to B10, for which the binding entry is “binds”.
